Source: PubChem BioAssay AID1259254 (NCATS, 2017)
Aim: 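Finding genes that stop cells copying their DNA twice in one cycle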 (primary screen). Cells: human HCT116 colorectal cancer cells. Reagents: single siRNA against human genes. Time to read-out: 3 days. Measured: 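Nuclei stained with Hoechst and imaged; cell-cycle phase assigned by DNA content; G2 share scaled per plate, non-targeting siRNA 0%, GMNN siRNA 100%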. Direction: G2 robust z-score and G2 cells, % of GMNN control: higher = more G2 cells, more excess DNA replication; raw share of cells in G2: higher = larger share of cells with G2 DNA content. Rule for the call: 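Active siRNAs have a G2 robust z of 5 or more median absolute deviations over the median, which in these data means about 38% or higher of GMNN control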.
Shown is an unselected part of about 59,000 deposited reagents. Of all reagents, about 1,550 (2.6%) got an active call. 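G2 share is only a proxy for re-replication; each gene was hit by three separate siRNAs, and active genes were retested.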 The raw values are shown without normalisation. The numbers tell different reagents against one gene apart. Reagent sequences are not shown. The record does not give: the amount of reagent.

target	reagent	G2 robust z-score	G2 cells, % of GMNN control	raw share of cells in G2 (%)	outcome
ARPP19P2 (ARPP19 pseudogene 2)	1	2.46	20.3	9.06	inactive
ARPP19P2 (ARPP19 pseudogene 2)	2	0.828	8.79	6.98	inactive
ARPP19P2 (ARPP19 pseudogene 2)	3	0.137	3.93	4.69	inactive
SMIM21 (small integral membrane protein 21)	1	-1.19	-5.38	1.68	inactive
SMIM21 (small integral membrane protein 21)	2	-0.537	-0.807	2.73	inactive
SMIM21 (small integral membrane protein 21)	3	-1.09	-4.71	1.84	inactive
WNK4 (WNK lysine deficient protein kinase 4)	1	1.77	15.5	10.4	inactive
WNK4 (WNK lysine deficient protein kinase 4)	2	0.26	4.8	6.94	inactive
WNK4 (WNK lysine deficient protein kinase 4)	3	0.529	6.69	5.82	inactive
TYMP (thymidine phosphorylase)	1	1.98	16.9	9.67	inactive
TYMP (thymidine phosphorylase)	2	-0.402	0.137	5.32	inactive
TYMP (thymidine phosphorylase)	3	1.82	15.8	11	inactive
FUCA2 (alpha-L-fucosidase 2)	1	1.81	15.7	10.9	inactive
FUCA2 (alpha-L-fucosidase 2)	2	-0.0883	2.35	6.16	inactive
FUCA2 (alpha-L-fucosidase 2)	3	-1.04	-4.34	2.11	inactive
CFAP20 (cilia and flagella associated protein 20)	1	2.02	17.2	10.4	inactive
CFAP20 (cilia and flagella associated protein 20)	2	-0.285	0.959	4.91	inactive
CFAP20 (cilia and flagella associated protein 20)	3	0.704	7.92	5.75	inactive
PGBD5 (piggyBac transposable element derived 5)	1	0.177	4.21	6.42	inactive
PGBD5 (piggyBac transposable element derived 5)	2	0.861	9.02	8.65	inactive
PGBD5 (piggyBac transposable element derived 5)	3	-0.625	-1.43	2.32	inactive
PDCD7 (programmed cell death 7)	1	0.34	5.36	7.75	inactive
PDCD7 (programmed cell death 7)	2	1.19	11.4	8.69	inactive
PDCD7 (programmed cell death 7)	3	-0.18	1.7	4.02	inactive
CIART (circadian associated repressor of transcription)	1	0.312	5.16	5.56	inactive
CIART (circadian associated repressor of transcription)	2	-0.364	0.405	3.04	inactive
CIART (circadian associated repressor of transcription)	3	-0.328	0.658	3.3	inactive
NR3C1 (nuclear receptor subfamily 3 group C member 1)	1	-0.869	-3.14	4.62	inactive
NR3C1 (nuclear receptor subfamily 3 group C member 1)	2	6.48	48.6	21.2	active
NR3C1 (nuclear receptor subfamily 3 group C member 1)	3	-0.0125	2.88	4.91	inactive
WASHC2EP (WASHC2E, pseudogene)	1	0.539	6.76	6.91	inactive
WASHC2EP (WASHC2E, pseudogene)	2	-0.563	-0.99	3.65	inactive
WASHC2EP (WASHC2E, pseudogene)	3	2.02	17.2	10.8	inactive

In a second layout: entries from further up
PGBD5 (piggyBac transposable element derived 5) #2 — G2 robust z-score: 0.861; G2 cells, % of GMNN control: 9.02; raw share of cells in G2 (%): 8.65; outcome: inactive
PGBD5 (piggyBac transposable element derived 5) #3 — G2 robust z-score: -0.625; G2 cells, % of GMNN control: -1.43; raw share of cells in G2 (%): 2.32; outcome: inactive
PDCD7 (programmed cell death 7) #1 — G2 robust z-score: 0.34; G2 cells, % of GMNN control: 5.36; raw share of cells in G2 (%): 7.75; outcome: inactive
PDCD7 (programmed cell death 7) #2 — G2 robust z-score: 1.19; G2 cells, % of GMNN control: 11.4; raw share of cells in G2 (%): 8.69; outcome: inactive
PDCD7 (programmed cell death 7) #3 — G2 robust z-score: -0.18; G2 cells, % of GMNN control: 1.7; raw share of cells in G2 (%): 4.02; outcome: inactive
CIART (circadian associated repressor of transcription) #1 — G2 robust z-score: 0.312; G2 cells, % of GMNN control: 5.16; raw share of cells in G2 (%): 5.56; outcome: inactive
CIART (circadian associated repressor of transcription) #2 — G2 robust z-score: -0.364; G2 cells, % of GMNN control: 0.405; raw share of cells in G2 (%): 3.04; outcome: inactive
CIART (circadian associated repressor of transcription) #3 — G2 robust z-score: -0.328; G2 cells, % of GMNN control: 0.658; raw share of cells in G2 (%): 3.3; outcome: inactive
NR3C1 (nuclear receptor subfamily 3 group C member 1) #1 — G2 robust z-score: -0.869; G2 cells, % of GMNN control: -3.14; raw share of cells in G2 (%): 4.62; outcome: inactive
NR3C1 (nuclear receptor subfamily 3 group C member 1) #2 — G2 robust z-score: 6.48; G2 cells, % of GMNN control: 48.6; raw share of cells in G2 (%): 21.2; outcome: active

Next reagents:
target	reagent	G2 robust z-score	G2 cells, % of GMNN control	raw share of cells in G2 (%)	outcome
RBPJ	1	0.0558	3.36	5.43	inactive
RBPJ	2	0.359	5.49	7.77	inactive
RBPJ	3	-0.551	-0.907	4.71	inactive
LINC00992 (long independently transcribed non-coding RNA 992)	1	0.248	4.72	5.33	inactive
LINC00992 (long independently transcribed non-coding RNA 992)	2	-0.204	1.53	3.41	inactive
LINC00992 (long independently transcribed non-coding RNA 992)	3	-0.314	0.757	3.89	inactive
TSHR (thyroid stimulating hormone receptor)	1	0.406	5.83	8.06	inactive
TSHR (thyroid stimulating hormone receptor)	2	1.37	12.6	8.64	inactive
TSHR (thyroid stimulating hormone receptor)	3	2.9	23.4	13	inactive
USP50 (ubiquitin specific peptidase 50)	1	-0.54	-0.829	3.7	inactive
USP50 (ubiquitin specific peptidase 50)	2	1.3	12.1	8.57	inactive
USP50 (ubiquitin specific peptidase 50)	3	0.192	4.32	5.93	inactive
ARPP21 (cAMP regulated phosphoprotein 21)	1	2.35	19.5	12.6	inactive
ARPP21 (cAMP regulated phosphoprotein 21)	2	-0.692	-1.9	3.35	inactive
ARPP21 (cAMP regulated phosphoprotein 21)	3	-0.0551	2.58	4.14	inactive
KLF11 (KLF transcription factor 11)	1	-0.387	0.244	3.61	inactive
KLF11 (KLF transcription factor 11)	2	0.335	5.32	8.36	inactive
KLF11 (KLF transcription factor 11)	3	0.669	7.67	6.55	inactive
NUP43 (nucleoporin 43)	1	1.96	16.7	9.73	inactive
NUP43 (nucleoporin 43)	2	0.827	8.78	7.1	inactive
NUP43 (nucleoporin 43)	3	1.99	17	11	inactive
CEACAM16 (CEA cell adhesion molecule 16, tectorial membrane component)	1	-0.47	-0.338	4.49	inactive
CEACAM16 (CEA cell adhesion molecule 16, tectorial membrane component)	2	0.148	4.01	5.15	inactive
CEACAM16 (CEA cell adhesion molecule 16, tectorial membrane component)	3	-0.297	0.877	3.79	inactive
CEACAM22P (CEA cell adhesion molecule 22, pseudogene)	1	-0.852	-3.03	2.74	inactive
CEACAM22P (CEA cell adhesion molecule 22, pseudogene)	2	0.544	6.8	6.36	inactive
CEACAM22P (CEA cell adhesion molecule 22, pseudogene)	3	-0.454	-0.227	4.54	inactive
TRIM56 (tripartite motif containing 56)	1	-1.07	-4.59	3.09	inactive
TRIM56 (tripartite motif containing 56)	2	-0.283	0.977	4.55	inactive
TRIM56 (tripartite motif containing 56)	3	-0.213	1.47	6.04	inactive
TTR (transthyretin)	1	-0.504	-0.577	4.88	inactive
TTR (transthyretin)	2	0.0209	3.11	5.13	inactive
TTR (transthyretin)	3	-0.186	1.66	3.93	inactive
IRGC (immunity related GTPase cinema)	1	-0.183	1.68	5.26	inactive
IRGC (immunity related GTPase cinema)	2	-0.589	-1.18	2.66	inactive
IRGC (immunity related GTPase cinema)	3	0.0376	3.23	5.62	inactive
